Results are given in words; binding and its absence hold for the method and conditions named. Binding seen in cells or lysates may run through a third protein. A result given as binding can be weak or reduced; the word gives no strength. Tags and fused reporters may be left off the sequences shown.
Experiments:
[1] = biological target: Myc-Cap (porcine circovirus type 2, strain HZ0201); assay: co-IP; HEK293T co-transfected with FLAG-tagged host protein and GFP-Cap or Myc-Cap for 48 h; NP-40 lysates immunoprecipitated with anti-FLAG beads, anti-GFP or anti-Myc mAbs; western blot
[2] = biological target: GFP-Cap (porcine circovirus type 2, strain HZ0201); assay: as above

B1: FLAG-MX2 (protein, UniProt A7VK00 1-711)
chain: MPKPRMSWPYQRHRQASSPPHPHKEMNFFPQQPLPLGAGPGQMTFPLNWQMGGKDLTKGLNMLTLSPQQPGGKSGQQTSKGPENNLYSPFEEKVRPCIDLIDSLRALGVEQDLALPTIAVIGDQSSGKSSVLEALSGVPLPRGSGIITRCPLALRLKKKECPWQGRISYRKVELQLQDPSQVEREIRKAQDAIAGSGVGISHELISLEVTSPEVPDLTLIDLPGITRVAVGNQPQDIGLQIKALIRKYIQEQQTINLVVVPCNVDIATTEALRMAQEVDPEGDRTIGILTKPDLVDTGAEKVVLNVMQNLTYHLKKGYMIVKCRGQQEILNKLSLAEATKREIAFFHSHPHFRILLEEGKATVPRLAERLTVELIGHISKSLPLLFSQIKEIHQSATEELRLCGASVPSNDADKMFFLIEKIKVFNQDIENLAEGEEIVKEKEARLYNKIREEFKSWIVTLDCNSKKVKNIIHEEVSKYDRQYRGKELMGFVSYKTFESIVRQYLEELVDPALGMLQTVVEIVRQTFSDTAQKNFGEFSNLNQTTQNKVDSIAARAAERAEGLIRLQFRMEQLVFCQDDIYRVDLKAVREELFNPVAEHPQSLQLRLPFVNGPSPVSSITEIGVHVNAYFMGTSQRLANQIPFIIQYCVLQESRDHLQKAMMQMLQGREQYSWLLQEESHTSAKRHFLKEKIHRLAEARHTLSKFAQSLQG
[1]
  binding: binds
[2]
  binding: binds
